The results in this text go back to the supplement of paper PMC12819154, “High-throughput peptide-centric local stability assay extends protein–ligand identification to membrane proteins, tissues and bacteria” (Nature Structural & Molecular Biology, 2025).

Protein sequences, listed by entry. Tags and fused reporters are not part of them. Lines headed by an entry give the natural chain unless they say otherwise; changes in a name come on top.
UniProt O14737: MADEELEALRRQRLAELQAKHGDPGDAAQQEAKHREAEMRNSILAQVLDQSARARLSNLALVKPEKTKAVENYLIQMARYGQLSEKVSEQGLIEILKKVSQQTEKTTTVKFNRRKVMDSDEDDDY
UniProt A8MTZ0: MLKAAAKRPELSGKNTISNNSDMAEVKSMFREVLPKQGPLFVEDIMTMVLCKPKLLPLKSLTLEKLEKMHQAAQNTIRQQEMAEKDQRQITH
UniProt O14523: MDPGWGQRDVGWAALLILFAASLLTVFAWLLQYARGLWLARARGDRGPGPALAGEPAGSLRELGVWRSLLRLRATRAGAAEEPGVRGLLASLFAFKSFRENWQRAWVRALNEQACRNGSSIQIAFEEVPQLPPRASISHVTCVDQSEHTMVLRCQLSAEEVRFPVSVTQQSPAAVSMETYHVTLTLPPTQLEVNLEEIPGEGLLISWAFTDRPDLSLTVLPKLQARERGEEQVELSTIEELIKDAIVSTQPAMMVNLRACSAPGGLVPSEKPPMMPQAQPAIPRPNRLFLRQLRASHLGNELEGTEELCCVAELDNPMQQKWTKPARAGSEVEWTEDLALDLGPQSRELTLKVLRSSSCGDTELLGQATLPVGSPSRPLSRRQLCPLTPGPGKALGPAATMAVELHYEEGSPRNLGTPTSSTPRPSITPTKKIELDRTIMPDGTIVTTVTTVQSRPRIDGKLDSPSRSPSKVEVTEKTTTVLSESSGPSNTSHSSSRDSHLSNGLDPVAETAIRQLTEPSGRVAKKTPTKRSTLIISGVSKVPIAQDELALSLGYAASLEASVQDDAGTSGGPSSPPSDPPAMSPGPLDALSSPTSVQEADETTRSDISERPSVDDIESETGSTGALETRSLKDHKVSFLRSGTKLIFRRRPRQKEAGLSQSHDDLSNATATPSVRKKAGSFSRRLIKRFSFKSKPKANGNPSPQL
UniProt O15226: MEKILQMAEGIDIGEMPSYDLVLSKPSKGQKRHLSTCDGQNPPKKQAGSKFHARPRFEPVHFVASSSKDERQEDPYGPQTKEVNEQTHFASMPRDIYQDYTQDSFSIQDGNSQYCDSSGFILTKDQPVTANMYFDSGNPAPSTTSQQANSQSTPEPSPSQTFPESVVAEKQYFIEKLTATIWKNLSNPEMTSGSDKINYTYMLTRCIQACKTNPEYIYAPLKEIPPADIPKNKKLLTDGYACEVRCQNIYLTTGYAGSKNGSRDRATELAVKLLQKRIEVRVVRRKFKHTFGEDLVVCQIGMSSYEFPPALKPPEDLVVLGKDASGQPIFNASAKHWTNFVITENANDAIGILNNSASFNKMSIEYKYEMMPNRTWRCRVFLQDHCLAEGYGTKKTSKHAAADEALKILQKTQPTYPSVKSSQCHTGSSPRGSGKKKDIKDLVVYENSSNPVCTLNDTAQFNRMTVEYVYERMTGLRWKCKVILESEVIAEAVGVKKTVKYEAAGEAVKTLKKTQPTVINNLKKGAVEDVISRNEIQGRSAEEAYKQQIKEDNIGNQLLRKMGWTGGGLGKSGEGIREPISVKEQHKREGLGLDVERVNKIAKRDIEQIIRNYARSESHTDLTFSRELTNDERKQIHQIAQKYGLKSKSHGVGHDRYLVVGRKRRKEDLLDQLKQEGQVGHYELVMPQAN
UniProt O14920: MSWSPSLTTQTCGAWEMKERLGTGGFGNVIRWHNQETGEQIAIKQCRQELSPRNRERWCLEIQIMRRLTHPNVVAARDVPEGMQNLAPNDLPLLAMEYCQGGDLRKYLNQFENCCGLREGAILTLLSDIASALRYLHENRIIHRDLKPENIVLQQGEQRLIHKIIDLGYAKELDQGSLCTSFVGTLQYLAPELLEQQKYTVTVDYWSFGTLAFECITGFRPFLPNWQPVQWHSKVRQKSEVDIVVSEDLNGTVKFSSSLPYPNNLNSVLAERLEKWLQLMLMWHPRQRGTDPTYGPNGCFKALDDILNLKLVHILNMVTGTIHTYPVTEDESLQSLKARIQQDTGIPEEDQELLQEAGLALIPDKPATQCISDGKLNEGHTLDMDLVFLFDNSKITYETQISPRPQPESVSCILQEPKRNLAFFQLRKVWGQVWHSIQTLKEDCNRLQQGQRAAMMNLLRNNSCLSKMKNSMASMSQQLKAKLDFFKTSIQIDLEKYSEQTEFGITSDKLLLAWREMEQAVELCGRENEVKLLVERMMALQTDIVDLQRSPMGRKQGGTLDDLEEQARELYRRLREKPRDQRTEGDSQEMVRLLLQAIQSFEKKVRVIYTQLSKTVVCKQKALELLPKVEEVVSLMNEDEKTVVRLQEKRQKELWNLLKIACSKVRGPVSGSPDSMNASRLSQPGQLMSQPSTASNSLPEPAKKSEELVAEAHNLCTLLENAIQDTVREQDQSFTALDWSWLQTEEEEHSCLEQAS
UniProt O15091: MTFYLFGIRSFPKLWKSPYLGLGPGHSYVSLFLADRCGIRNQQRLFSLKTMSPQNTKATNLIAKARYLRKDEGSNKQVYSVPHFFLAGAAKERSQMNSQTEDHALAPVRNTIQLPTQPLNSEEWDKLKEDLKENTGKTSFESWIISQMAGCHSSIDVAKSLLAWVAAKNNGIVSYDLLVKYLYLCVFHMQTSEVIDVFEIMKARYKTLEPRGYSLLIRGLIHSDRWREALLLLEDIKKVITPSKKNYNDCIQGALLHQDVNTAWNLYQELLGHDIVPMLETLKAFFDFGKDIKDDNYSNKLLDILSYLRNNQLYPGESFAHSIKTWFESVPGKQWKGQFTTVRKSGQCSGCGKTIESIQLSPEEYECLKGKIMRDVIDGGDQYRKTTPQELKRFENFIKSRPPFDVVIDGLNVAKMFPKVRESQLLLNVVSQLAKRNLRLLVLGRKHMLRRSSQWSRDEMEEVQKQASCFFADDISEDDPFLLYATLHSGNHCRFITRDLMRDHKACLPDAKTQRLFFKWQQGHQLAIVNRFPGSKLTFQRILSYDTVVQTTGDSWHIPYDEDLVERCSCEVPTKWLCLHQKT
UniProt O15382: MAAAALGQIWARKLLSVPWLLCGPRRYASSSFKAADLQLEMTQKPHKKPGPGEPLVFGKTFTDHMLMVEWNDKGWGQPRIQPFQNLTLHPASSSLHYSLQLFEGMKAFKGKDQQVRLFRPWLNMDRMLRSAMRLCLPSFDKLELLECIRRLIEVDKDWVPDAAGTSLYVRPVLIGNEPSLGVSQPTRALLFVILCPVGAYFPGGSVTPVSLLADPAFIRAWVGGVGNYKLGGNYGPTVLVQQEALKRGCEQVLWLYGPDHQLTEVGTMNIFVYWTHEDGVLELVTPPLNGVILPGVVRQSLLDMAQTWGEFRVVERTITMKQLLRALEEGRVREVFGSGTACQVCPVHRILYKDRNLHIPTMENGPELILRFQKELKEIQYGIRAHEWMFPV
UniProt O00255, whole entry: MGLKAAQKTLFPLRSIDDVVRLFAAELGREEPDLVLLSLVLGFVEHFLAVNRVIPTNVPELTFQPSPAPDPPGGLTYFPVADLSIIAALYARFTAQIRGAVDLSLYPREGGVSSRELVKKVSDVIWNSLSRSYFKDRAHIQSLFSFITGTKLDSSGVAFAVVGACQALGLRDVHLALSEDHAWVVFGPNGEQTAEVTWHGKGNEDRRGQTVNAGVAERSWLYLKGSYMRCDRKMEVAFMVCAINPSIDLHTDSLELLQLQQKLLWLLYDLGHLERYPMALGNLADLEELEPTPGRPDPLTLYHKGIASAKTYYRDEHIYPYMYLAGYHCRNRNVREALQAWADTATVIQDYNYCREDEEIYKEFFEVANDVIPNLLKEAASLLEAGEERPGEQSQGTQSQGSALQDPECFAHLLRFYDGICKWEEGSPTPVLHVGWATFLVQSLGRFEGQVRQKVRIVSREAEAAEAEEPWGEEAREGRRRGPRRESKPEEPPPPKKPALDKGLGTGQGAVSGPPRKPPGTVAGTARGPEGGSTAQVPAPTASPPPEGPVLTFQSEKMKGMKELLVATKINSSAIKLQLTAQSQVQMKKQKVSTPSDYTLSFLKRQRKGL
UniProt O15212, whole entry: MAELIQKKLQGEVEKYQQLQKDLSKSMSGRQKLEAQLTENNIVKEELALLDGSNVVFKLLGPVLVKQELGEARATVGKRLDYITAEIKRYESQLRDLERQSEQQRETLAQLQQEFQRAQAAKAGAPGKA
UniProt O15211: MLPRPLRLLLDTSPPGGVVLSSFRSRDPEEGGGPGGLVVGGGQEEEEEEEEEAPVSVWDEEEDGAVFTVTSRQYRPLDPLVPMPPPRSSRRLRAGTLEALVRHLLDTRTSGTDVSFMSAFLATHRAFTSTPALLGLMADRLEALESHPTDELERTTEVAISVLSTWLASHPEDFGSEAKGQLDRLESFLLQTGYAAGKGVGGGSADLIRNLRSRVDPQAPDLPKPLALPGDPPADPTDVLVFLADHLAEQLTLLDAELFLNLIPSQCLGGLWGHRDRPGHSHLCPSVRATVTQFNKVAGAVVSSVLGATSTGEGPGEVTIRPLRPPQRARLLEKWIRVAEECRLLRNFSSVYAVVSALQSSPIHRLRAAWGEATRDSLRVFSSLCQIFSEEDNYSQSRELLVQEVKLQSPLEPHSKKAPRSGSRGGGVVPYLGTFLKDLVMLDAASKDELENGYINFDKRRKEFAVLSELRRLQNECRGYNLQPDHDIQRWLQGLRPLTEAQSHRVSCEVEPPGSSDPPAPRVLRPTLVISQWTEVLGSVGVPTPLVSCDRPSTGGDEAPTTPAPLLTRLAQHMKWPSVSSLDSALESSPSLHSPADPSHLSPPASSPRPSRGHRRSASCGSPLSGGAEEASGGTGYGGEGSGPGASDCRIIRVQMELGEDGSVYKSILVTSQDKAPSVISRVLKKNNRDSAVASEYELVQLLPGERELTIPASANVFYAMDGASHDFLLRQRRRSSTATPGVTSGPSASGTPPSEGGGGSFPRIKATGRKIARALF
UniProt O15013: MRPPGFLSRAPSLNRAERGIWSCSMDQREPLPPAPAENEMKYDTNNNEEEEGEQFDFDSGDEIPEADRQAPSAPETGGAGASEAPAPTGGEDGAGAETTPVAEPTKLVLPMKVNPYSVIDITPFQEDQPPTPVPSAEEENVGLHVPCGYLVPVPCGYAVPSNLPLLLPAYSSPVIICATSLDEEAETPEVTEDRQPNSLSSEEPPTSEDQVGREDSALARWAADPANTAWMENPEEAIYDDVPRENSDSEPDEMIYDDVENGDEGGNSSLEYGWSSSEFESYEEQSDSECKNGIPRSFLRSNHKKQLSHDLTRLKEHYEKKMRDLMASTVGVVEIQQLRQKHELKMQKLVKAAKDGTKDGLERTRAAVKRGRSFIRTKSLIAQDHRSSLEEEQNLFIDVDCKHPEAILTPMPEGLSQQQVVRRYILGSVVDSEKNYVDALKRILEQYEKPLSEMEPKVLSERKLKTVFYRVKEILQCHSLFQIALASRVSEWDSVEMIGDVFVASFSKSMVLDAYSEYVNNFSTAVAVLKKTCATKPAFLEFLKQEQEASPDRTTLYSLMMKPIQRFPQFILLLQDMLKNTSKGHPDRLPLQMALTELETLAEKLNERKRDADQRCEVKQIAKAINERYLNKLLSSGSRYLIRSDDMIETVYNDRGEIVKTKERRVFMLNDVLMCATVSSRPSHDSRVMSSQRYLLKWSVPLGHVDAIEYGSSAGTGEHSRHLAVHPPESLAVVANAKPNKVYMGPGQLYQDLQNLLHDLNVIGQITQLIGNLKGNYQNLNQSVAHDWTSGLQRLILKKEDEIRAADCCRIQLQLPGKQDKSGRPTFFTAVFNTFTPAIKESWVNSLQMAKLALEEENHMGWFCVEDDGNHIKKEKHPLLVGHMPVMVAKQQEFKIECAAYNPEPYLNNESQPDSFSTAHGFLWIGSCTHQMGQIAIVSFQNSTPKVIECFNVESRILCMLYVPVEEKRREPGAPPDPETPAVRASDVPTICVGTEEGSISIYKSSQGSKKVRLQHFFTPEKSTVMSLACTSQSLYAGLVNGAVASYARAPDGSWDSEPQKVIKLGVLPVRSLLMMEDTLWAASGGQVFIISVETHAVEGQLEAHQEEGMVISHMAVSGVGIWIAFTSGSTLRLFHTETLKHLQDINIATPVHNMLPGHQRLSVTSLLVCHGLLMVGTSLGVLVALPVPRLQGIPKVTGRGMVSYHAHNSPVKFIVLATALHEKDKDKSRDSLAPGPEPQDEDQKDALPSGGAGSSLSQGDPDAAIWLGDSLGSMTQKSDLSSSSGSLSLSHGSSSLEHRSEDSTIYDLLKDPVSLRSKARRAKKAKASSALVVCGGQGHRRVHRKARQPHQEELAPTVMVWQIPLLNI
UniProt O14908: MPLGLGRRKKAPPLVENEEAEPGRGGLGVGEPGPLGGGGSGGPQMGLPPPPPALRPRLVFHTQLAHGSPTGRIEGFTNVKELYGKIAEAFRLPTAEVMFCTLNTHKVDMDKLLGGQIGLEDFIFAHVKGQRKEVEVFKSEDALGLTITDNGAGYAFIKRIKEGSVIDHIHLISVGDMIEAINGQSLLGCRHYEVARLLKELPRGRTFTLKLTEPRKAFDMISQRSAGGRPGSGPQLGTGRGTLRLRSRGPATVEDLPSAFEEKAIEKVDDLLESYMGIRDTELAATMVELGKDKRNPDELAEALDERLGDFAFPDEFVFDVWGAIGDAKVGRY

The other results are listed elsewhere or left out. Most entries show no effect beyond the scatter of the controls.

Compound in this test: Cc1nc(Nc2ncc(C(=O)Nc3c(C)cccc3Cl)s2)cc(N2CCN(CCO)CC2)n1 [dasatinib]
Briefly: log2 fold change of tryptic peptide abundance, ligand vs vehicle (limited proteolysis) (log2 ratio); higher = more trypsin-susceptible (destabilized). The following applies: ligand concentration: 5 uM; sample: K562 cleared lysate.
As to “PDCD5 (peptide sequence: LSNLALVKPEKTK, peptide start residue: 56) (UniProt O14737)”, the log2 fold change stood at 0.177. On to “UniProt O15504 (peptide sequence: DQEKPYFSSFDSGASTNRK, peptide start residue: 74)”, for which the log2 fold change was 0.342. On to “UniProt O14733 (peptide sequence: HMLGLPSTLFTPR, peptide start residue: 73)”, for which the log2 fold change is -0.171. Next, “AGPS (peptide sequence: RYPLSGMGLPTFK, peptide start residue: 117) (UniProt O00116)”: -0.291.

Turning to “STX7 (peptide sequence: ETDKYIKEFGSLPTTPSEQR, peptide start residue: 65) (UniProt O15400)”, the log2 fold change was -0.149. For “DNM1L (peptide sequence: TTGEENGVEAEEWGKFLHTK, peptide start residue: 78) (UniProt O00429)” the value was 0.226. For “UniProt A8MTZ0 (peptide sequence: MHQAAQNTIR, peptide start residue: 69)” the value was 0.222; for “P4HA2 (peptide sequence: RLLSLDPSHER, peptide start residue: 232) (UniProt O15460)”, -0.266.

As to “UniProt O14602 (peptide sequence: EDGQEYAQVIK, peptide start residue: 30)”, the log2 fold change came out at 0.104.

As for “C2CD2L (peptide sequence: NLGTPTSSTPRPSITPTKK, peptide start residue: 414) (UniProt O14523)”, the log2 fold change is -0.332. Next, “NKRF (peptide sequence: RDIEQIIR, peptide start residue: 604) (UniProt O15226)”: -1.21; “UniProt O14920 (peptide sequence: KYLNQFENCCGLR, peptide start residue: 106)”: 0.331; “UniProt O15091 (peptide sequence: SSQWSRDEMEEVQK, peptide start residue: 452)”: 0.4. Next, “BIN1 (peptide sequence: VNHEPEPAGGATPGATLPK, peptide start residue: 312) (UniProt O00499)”: -0.14; “FCHO1 (peptide sequence: DAAGKPQRPR, peptide start residue: 404) (UniProt O14526)”: 0.16; “BCAT2 (peptide sequence: LFRPWLNMDR, peptide start residue: 117) (UniProt O15382)”: 0.157. Take “HMGB3 (peptide sequence: PKGKMSAYAFFVQTCR, peptide start residue: 9) (UniProt O15347)”: the log2 fold change was 0.759. Next, “AP3D1 (peptide sequence: LFGALTPLEPR, peptide start residue: 244) (UniProt O14617)”: -0.4; “MEN1 (peptide sequence: GQTVNAGVAER, peptide start residue: 213) (UniProt O00255)”: 0.162.

In the case of “MCRIP1 (peptide sequence: TFKPIDLSDLKR, peptide start residue: 77) (UniProt C9JLW8)”, the log2 fold change is -0.151. “PFDN6 (peptide sequence: AGAPGKA, peptide start residue: 123) (UniProt O15212)”: the log2 fold change is -0.102. On to “SDCBP (peptide sequence: FGDQVLQINGENCAGWSSDKAHK, peptide start residue: 154) (UniProt O00560)”, for which the log2 fold change was -0.281. In the case of “RGL2 (peptide sequence: TSGTDVSFMSAFLATHR, peptide start residue: 109) (UniProt O15211)”, the log2 fold change came to 0.554.

Take “ARHGEF10 (peptide sequence: HLAVHPPESLAVVANAKPNK, peptide start residue: 722) (UniProt O15013)”: the log2 fold change was -0.502. Next, “GIPC1 (peptide sequence: SRGPATVEDLPSAFEEK, peptide start residue: 247) (UniProt O14908)”: 0.0535; “UniProt O14924 (peptide sequence: LDLVPINR, peptide start residue: 1037)”: -0.0145.
